Data on one substance can be found in patent publication US11492369 (dated 2022).

A short description of the data set: general procedure: Fmoc solid-phase peptide synthesis; Trt(2-Cl) (2-chlorotrityl) resin; DIC/HOOBt; DIC/HOAt. Conditions: whole synthesis; for crude purity (method not given): scale 100 mg resin; for crude LC-MS purity: LCMS (UV area), scale 1.0 g resin.

Consider Fmoc-Ser(tBu)-MePhe-MeVal-Asp-pip, for which the “crude purity (method not given)” value runs as follows: (LC UV area) 97.91% (LC UVarea); (UV area) 89% (UV area). Further, the “crude LC-MS purity” value is, setting by setting: (run 1) 99.92%; (run 2) 99.93%.
